Values from PubChem BioAssay AID504808 (Drosophila RNAi Screening Center, 2011)
The screen tested about 21,000 reagents; below is an unselected part of those that have a named target and a result. Over the whole deposit, 18 (0.084%) are marked active. 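Raw counts without plate normalisation, one of two replicates; the ratio scores behind the calls were not deposited.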 A number with no mark means an inactive call. The numbers tell different reagents against one gene apart. Not given: the amount of reagent, the time to read-out.

- Assay: 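Chromatin factors that keep E2F targets switched off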 (primary screen)
- Cells: Drosophila S2 cells
- Reagents: long dsRNA against Drosophila genes
- Detection: 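Dual luciferase plate measurements; E2F-specific signal taken as firefly over Renilla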
- Scale: E2F firefly: higher = more E2F reporter activity; Renilla normaliser: higher = more normaliser reporter signal
- Rule for the call: 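a knock-down counted as active when the firefly/Renilla E2F signal rose above 50%, a threshold chosen arbitrarily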

For Rtca, the entry reads E2F firefly, rep 1 = 1868; Renilla normaliser, rep 1 = 704.
For sas, the values are E2F firefly, rep 1 = 1.24e5; Renilla normaliser, rep 1 = 5729.
Silencing of sphe came out at: E2F firefly, rep 1 = 1.74e5; Renilla normaliser, rep 1 = 6320.
Against nAChRalpha6 #1 the deposit lists E2F firefly, rep 1 = 1.46e5; Renilla normaliser, rep 1 = 6162.
nAChRalpha6 #2 scored E2F firefly, rep 1 = 81556; Renilla normaliser, rep 1 = 4159.
Depletion of AANATL3 resulted in: E2F firefly, rep 1 = 1.03e5; Renilla normaliser, rep 1 = 4287.
After knock-down of CG11771, the record shows E2F firefly, rep 1 = 74538; Renilla normaliser, rep 1 = 3233.
After knock-down of Sox21b #1 the results were E2F firefly, rep 1 = 88379; Renilla normaliser, rep 1 = 3814.
Against Sox21b #2, the values are E2F firefly, rep 1 = 1.21e5; Renilla normaliser, rep 1 = 6107.
mdu showed E2F firefly, rep 1 = 48701; Renilla normaliser, rep 1 = 3127.
Nmdar2 #1 gave E2F firefly, rep 1 = 1.37e5; Renilla normaliser, rep 1 = 5926.
Knock-down of Nmdar2 #2 came out at: E2F firefly, rep 1 = 1.18e5; Renilla normaliser, rep 1 = 5540.
Depletion of Nmdar2 #3 gave: E2F firefly, rep 1 = 1.27e5; Renilla normaliser, rep 1 = 5627.

Laid out differently: entries from further up.
{"predicted target": "Sox21b", "reagent": 2, "E2F firefly, rep 1": 1.21e5, "Renilla normaliser, rep 1": 6107}
{"predicted target": "mdu", "reagent": 1, "E2F firefly, rep 1": 48701, "Renilla normaliser, rep 1": 3127}
